These are yes or no findings as the source states them, for the method shown. In cells and extracts the contact can be indirect. Here binding means that the protein was enriched with, or labelled near, the bait; the list need not be complete.
Target: Human thromboxane synthase (TBXAS1) (human) (UniProt P24557)
Test: affinity purification with mass spectrometry; direct molecular fishing: TBXAS1 covalently immobilised on CNBr-Sepharose 4B in a 200 µL microcolumn; human liver tissue lysate passed in HBS-EP+ (10 mM HEPES pH 7.4, 150 mM NaCl, 3 mM EDTA, 0.05% Tween 20) at 15°C; elution with 4% HCOOH (pH 2.5); LC-MS/MS; control column of empty inactivated sorbent; only the target purified

Sequences of proteins named here, by UniProt entry; tags and fusion partners are left off. A change or cut given only in a name is not applied to a line headed by its entry.
UniProt P24557: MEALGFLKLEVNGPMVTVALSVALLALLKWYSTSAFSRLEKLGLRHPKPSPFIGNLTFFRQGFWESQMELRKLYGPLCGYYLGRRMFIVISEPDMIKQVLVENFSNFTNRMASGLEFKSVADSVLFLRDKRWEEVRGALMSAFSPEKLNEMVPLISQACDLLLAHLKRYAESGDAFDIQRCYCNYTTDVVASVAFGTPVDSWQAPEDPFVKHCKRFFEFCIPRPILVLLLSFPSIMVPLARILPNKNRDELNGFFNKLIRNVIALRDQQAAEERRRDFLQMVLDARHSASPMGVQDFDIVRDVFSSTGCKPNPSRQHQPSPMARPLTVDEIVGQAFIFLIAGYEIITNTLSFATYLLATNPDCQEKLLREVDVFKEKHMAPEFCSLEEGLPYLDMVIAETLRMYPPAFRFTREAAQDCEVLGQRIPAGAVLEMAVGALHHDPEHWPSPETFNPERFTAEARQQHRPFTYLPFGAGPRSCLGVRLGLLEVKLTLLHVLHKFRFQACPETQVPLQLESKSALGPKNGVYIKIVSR
UniProt P05181: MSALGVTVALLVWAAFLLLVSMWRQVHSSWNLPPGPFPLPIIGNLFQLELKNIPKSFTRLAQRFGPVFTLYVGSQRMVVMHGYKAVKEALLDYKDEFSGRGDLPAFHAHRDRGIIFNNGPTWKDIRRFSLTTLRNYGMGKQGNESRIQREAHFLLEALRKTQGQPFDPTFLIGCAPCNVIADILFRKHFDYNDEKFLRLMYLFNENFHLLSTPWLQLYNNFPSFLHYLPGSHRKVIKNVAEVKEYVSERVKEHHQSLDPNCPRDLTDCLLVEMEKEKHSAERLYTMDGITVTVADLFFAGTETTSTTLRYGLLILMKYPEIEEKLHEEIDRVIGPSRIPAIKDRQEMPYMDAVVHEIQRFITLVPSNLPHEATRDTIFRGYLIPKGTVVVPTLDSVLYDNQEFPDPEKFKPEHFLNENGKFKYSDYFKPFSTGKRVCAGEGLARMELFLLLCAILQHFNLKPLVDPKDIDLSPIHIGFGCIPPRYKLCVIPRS

binding: binds
Substance: Cytochrome P450 2E1 (CYP2E1), from human liver tissue lysate (from UniProt P05181 1-493) (enzyme)
